According to PMC7616792, “The structural mechanism of dimeric DONSON in replicative helicase activation” (Molecular cell, 2023):
Read-outs that look alike come from different tables or passages of the source. These are yes or no findings as the source states them, for the method shown. For some of these results: In cells and extracts the contact can be indirect. Some results given as binding are weak or reduced against the parent protein; the word gives no strength. For some of these results: Sequences can lack the tags named with a protein.

Amino acid sequences for entries named in this document (tags omitted). A change or cut given only in a name is not applied to a line headed by its entry.
UniProt P12004: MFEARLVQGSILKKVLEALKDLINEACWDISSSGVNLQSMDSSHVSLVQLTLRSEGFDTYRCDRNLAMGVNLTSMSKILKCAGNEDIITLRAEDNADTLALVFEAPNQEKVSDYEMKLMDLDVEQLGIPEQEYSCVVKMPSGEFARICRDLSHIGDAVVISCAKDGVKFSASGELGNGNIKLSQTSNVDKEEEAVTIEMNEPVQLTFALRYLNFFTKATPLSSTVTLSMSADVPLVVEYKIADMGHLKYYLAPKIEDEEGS
UniProt Q14691: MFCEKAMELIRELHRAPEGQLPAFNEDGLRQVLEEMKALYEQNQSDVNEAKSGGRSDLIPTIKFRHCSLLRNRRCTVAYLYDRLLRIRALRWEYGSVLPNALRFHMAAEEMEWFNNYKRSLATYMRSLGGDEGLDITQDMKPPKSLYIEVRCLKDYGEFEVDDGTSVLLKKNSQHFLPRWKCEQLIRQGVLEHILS

T1: human DONSON Met446Thr, GFP-tagged (second copy FLAG-tagged) (human) (UniProt Q9NYP3)
T1 sequence: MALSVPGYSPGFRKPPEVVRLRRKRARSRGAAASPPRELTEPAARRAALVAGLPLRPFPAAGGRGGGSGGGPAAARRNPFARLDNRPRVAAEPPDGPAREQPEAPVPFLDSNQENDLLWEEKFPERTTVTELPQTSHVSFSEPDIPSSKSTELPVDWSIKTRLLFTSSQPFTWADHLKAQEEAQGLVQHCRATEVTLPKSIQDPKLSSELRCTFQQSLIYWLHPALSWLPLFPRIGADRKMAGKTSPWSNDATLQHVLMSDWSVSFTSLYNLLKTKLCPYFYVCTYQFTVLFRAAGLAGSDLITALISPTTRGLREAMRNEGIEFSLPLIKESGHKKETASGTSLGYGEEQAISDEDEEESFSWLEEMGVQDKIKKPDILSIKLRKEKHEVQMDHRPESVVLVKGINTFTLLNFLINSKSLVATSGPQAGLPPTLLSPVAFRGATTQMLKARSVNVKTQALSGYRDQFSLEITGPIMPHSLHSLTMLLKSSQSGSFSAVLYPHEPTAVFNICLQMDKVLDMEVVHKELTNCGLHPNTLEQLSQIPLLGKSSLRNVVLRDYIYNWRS

T2: human DONSON Trp228Leu, GFP-tagged (second copy FLAG-tagged) (human) (UniProt Q9NYP3)
T2 sequence: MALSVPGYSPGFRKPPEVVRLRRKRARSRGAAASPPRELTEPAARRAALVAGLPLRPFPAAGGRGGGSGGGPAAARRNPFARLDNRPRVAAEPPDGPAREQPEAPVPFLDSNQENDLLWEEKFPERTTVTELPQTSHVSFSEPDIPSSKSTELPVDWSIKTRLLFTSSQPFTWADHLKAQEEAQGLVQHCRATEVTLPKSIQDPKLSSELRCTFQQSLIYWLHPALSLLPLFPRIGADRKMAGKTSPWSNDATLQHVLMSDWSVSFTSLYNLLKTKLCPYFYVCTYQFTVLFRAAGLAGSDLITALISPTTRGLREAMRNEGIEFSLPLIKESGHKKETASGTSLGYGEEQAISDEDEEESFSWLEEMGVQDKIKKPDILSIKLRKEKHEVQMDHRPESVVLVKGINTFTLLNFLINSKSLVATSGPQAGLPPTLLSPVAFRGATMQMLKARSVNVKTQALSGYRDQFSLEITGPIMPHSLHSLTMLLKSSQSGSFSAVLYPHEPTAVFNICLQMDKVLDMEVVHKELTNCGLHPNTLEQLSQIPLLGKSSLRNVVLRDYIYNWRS

T3: human DONSON WT, GFP-tagged (second copy FLAG-tagged) (human) (UniProt Q9NYP3)
T3 sequence: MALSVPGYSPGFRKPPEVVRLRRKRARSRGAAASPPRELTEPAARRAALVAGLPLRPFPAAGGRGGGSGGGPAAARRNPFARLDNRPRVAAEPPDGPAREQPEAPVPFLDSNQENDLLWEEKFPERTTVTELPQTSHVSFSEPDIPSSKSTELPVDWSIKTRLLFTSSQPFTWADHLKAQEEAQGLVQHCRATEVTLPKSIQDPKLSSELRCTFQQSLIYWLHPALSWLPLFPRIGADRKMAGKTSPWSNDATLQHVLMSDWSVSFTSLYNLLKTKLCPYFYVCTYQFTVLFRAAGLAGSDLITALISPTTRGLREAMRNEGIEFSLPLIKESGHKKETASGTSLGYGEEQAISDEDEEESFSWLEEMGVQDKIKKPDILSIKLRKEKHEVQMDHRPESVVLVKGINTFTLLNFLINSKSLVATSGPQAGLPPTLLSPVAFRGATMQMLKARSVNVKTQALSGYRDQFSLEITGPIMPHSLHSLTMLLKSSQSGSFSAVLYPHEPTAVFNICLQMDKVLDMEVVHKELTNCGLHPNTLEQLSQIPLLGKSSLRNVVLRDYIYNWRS

T4: Sld5 (GINS subunit), endogenous in Xenopus laevis egg extract (Xenopus laevis (endogenous in egg extract)) (UniProt Q7ZT48)
T4 sequence: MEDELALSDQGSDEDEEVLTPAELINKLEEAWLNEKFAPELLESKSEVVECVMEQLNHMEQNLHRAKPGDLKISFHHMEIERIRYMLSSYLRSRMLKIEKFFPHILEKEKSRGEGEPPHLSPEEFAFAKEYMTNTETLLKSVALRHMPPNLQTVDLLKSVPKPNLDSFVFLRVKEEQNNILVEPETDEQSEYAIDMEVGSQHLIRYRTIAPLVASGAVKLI

T5: Mcm3, endogenous in Xenopus laevis egg extract (Xenopus laevis (endogenous in egg extract)), P49739
T5 chain: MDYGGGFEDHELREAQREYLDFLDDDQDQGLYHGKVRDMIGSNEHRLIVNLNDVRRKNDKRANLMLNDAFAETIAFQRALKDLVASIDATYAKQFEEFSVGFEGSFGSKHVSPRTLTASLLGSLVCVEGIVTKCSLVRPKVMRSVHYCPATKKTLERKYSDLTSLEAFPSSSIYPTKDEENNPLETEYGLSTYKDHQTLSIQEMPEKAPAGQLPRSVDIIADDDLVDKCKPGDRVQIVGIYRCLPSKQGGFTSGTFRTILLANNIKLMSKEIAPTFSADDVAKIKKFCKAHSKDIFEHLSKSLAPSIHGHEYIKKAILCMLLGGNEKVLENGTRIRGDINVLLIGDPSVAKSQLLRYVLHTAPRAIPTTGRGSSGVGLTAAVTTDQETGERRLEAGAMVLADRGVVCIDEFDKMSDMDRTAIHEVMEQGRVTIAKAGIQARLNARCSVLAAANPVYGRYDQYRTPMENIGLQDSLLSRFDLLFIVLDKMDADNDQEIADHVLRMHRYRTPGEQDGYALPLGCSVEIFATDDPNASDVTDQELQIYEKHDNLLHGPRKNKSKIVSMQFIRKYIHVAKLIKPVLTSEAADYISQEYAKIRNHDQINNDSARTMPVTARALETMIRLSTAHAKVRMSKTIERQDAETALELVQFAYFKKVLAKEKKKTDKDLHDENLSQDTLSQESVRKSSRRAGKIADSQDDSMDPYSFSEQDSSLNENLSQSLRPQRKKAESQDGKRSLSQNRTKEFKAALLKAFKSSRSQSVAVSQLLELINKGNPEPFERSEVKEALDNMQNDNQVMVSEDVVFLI

T6: Mcm3, endogenous in Xenopus laevis egg extract (Xenopus laevis (endogenous in egg extract)) (UniProt P49739)
T6 sequence: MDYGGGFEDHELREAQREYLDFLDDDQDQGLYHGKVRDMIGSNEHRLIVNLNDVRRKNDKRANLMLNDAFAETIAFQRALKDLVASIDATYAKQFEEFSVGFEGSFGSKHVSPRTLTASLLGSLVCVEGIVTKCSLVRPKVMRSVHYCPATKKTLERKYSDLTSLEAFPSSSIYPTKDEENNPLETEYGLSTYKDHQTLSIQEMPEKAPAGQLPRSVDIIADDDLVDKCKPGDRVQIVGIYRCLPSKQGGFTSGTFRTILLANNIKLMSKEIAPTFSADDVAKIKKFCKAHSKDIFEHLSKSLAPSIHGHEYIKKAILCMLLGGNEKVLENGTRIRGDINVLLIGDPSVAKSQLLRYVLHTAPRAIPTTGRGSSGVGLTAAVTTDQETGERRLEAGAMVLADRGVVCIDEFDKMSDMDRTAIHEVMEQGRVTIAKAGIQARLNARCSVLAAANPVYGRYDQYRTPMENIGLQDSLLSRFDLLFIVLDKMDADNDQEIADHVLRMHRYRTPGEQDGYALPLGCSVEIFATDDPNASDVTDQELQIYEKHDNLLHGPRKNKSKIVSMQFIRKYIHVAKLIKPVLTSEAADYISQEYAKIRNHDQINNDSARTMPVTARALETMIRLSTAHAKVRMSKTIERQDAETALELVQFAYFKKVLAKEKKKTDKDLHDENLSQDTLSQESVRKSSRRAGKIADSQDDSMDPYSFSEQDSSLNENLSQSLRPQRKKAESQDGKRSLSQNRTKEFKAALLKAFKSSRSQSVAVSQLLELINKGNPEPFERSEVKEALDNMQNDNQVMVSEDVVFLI


Experiments:
[1] = molecular target: T1, human DONSON Met446Thr, GFP-tagged (second copy FLAG-tagged) (human); assay: co-IP; 293FT cells transfected with GFP-tagged (and FLAG-tagged) DONSON, lysed with 0.5-1% NP40 and benzonase; GFP-DONSON captured on GFP-Trap agarose beads 5 h at 4°C, washed with 100-300 mM NaCl; blots for FLAG, GINS, MCM2, PCNA
[2] = molecular target: T2, human DONSON Trp228Leu, GFP-tagged (second copy FLAG-tagged) (human); assay: as above
[3] = molecular target: T3, human DONSON WT, GFP-tagged (second copy FLAG-tagged) (human); assay: as above
[4] = molecular target: T4, Sld5 (GINS subunit), endogenous in Xenopus laevis egg extract (Xenopus laevis (endogenous in egg extract)); assay: cryo-EM structure; dCMGDo (double CMG-DONSON, 24-mer) in the 3xFLAG-peptide eluate of the Cdc45-TEV-His10-FLAG5 immunoprecipitation from benzonase-digested chromatin; graphene oxide grids; no DNA in the complex; C2 symmetry
[5] = molecular target: T5, Mcm3, endogenous in Xenopus laevis egg …; assay: as above; conditions: remark: other sources report otherwise
[6] = molecular target: T6, Mcm3, endogenous in Xenopus laevis egg extract (Xenopus laevis (endogenous in egg extract)); assay: as above
[7] = molecular target: T3, human DONSON WT, GFP-tagged (second copy FLAG-tagged) (human); assay: co-IP; 293FT cells transfected with GFP-tagged (and FLAG-tagged) DONSON, lysed with 0.5-1% NP40 and benzonase; GFP-DONSON captured on GFP-Trap agarose beads 5 h at 4°C, washed with 100-300 mM NaCl; blots for FLAG, GINS, MCM2, PCNA; remark: listed apart in the source

Molecule | binding [1] | binding [2] | binding [3] | further results
PCNA (proliferating cell nuclear antigen), endogenous in 293FT cells (from UniProt P12004 1-261) | binds | binds | binds | –
GINS complex, endogenous in 293FT cells (from UniProt Q14691 1-196; Q9Y248 1-185; Q9BRX5 1-216; Q9BRT9 1-223) | binds | binds | binds | –
DONSON (Downstream neighbor of Son), endogenous in Xenopus laevis egg extract (protein, UniProt Q5U4U4 1-579) MAELLPGYSPSFKKPSEILRLSRRRSRSEASKTGLSPFSPGDVIKRVPGLRPFSPGPNKGAGVKRRNPFASLENTVCSPVKRRAETVAEYGAASLEPRALSAVRPSCLGQDSPEPPQFNSVEDVIWGDPLAADADPLVKTESPEKPAPACEIPKGSVTFPADWSLKTRLLFTSSHSFSWADHLKAQEEAQGLVMQCRATAVNLPHSIQEPKLSTDLRCAFQQSLVHWIHPSLPWVQLFPRIGVDRKMAGKNTPWSQDESLQQVLMSEWALSFTSLYNLLKAKLCPYFYVCTYQFTVLFRAAGLAGSDVITAVMSPTTRGLREAMKNEGITFSQPLVEDDTGKKQKKPEAASQGDINPEKENGTAEADEASDESDEDESFSWLEEMGVEDKIKKPDSISIKLRKEKNEVKLDHKPESVVLVKGTNTFTLLNFLINCKSIVAAAGLQAGLPPTLLSPVAFRGATMHALKARSVNVKTRVNSGYKDQFSLEITGPIMPHSLHSLTMLLQSAQRGSFSAGLYTHEPTAVFNTPIHSQAVKEISADLQNCGLHPCTVEQLTQVNELGKLSLRHLEMTDYRYTWK | – | – | – | binding [4]: binds
DONSON (Downstream neighbor of Son), endogenous in Xenopus laevis egg extract, Q5U4U4 1-579 (protein) MAELLPGYSPSFKKPSEILRLSRRRSRSEASKTGLSPFSPGDVIKRVPGLRPFSPGPNKGAGVKRRNPFASLENTVCSPVKRRAETVAEYGAASLEPRALSAVRPSCLGQDSPEPPQFNSVEDVIWGDPLAADADPLVKTESPEKPAPACEIPKGSVTFPADWSLKTRLLFTSSHSFSWADHLKAQEEAQGLVMQCRATAVNLPHSIQEPKLSTDLRCAFQQSLVHWIHPSLPWVQLFPRIGVDRKMAGKNTPWSQDESLQQVLMSEWALSFTSLYNLLKAKLCPYFYVCTYQFTVLFRAAGLAGSDVITAVMSPTTRGLREAMKNEGITFSQPLVEDDTGKKQKKPEAASQGDINPEKENGTAEADEASDESDEDESFSWLEEMGVEDKIKKPDSISIKLRKEKNEVKLDHKPESVVLVKGTNTFTLLNFLINCKSIVAAAGLQAGLPPTLLSPVAFRGATMHALKARSVNVKTRVNSGYKDQFSLEITGPIMPHSLHSLTMLLQSAQRGSFSAGLYTHEPTAVFNTPIHSQAVKEISADLQNCGLHPCTVEQLTQVNELGKLSLRHLEMTDYRYTWK | – | – | – | binding [5]: binds
Psf3 (GINS subunit), endogenous in Xenopus laevis egg extract (protein, UniProt Q7ZT01 1-210) MWEPYMPVEPGLGREENFLSLEDLLMSQEKLPCCIESGFPRLGFLDKGGDSDSIPEGSKMELPLWLAKGLYDNKRRVLSVELPKIYREGWRTVFSADANVVDLHKMGPHYYGFGSQLLNFDSPENPEIAKTILQTFVGRFRRIMDSSQNAYNEDTSGLVARLDELERSLFRAGQRGLNAFQSWERGKAAQITASNLVQNYKKRKFNEADA | – | – | – | binding [6]: binds
human DONSON WT, GFP-tagged (second copy FLAG-tagged) (protein, UniProt Q9NYP3 1-566) MALSVPGYSPGFRKPPEVVRLRRKRARSRGAAASPPRELTEPAARRAALVAGLPLRPFPAAGGRGGGSGGGPAAARRNPFARLDNRPRVAAEPPDGPAREQPEAPVPFLDSNQENDLLWEEKFPERTTVTELPQTSHVSFSEPDIPSSKSTELPVDWSIKTRLLFTSSQPFTWADHLKAQEEAQGLVQHCRATEVTLPKSIQDPKLSSELRCTFQQSLIYWLHPALSWLPLFPRIGADRKMAGKTSPWSNDATLQHVLMSDWSVSFTSLYNLLKTKLCPYFYVCTYQFTVLFRAAGLAGSDLITALISPTTRGLREAMRNEGIEFSLPLIKESGHKKETASGTSLGYGEEQAISDEDEEESFSWLEEMGVQDKIKKPDILSIKLRKEKHEVQMDHRPESVVLVKGINTFTLLNFLINSKSLVATSGPQAGLPPTLLSPVAFRGATMQMLKARSVNVKTQALSGYRDQFSLEITGPIMPHSLHSLTMLLKSSQSGSFSAVLYPHEPTAVFNICLQMDKVLDMEVVHKELTNCGLHPNTLEQLSQIPLLGKSSLRNVVLRDYIYNWRS | – | – | – | binding [7]: binds
